Assay results reported in paper PMC7026641, “Identification of the 3-amino-3-carboxypropyl (acp) transferase enzyme responsible for acp^3U formation at position 47 in Escherichia coli tRNAs” (Nucleic Acids Research, 2019).
No constants are given. Whether binding was seen depends on the method and setting. Tags and fused reporters may be left off the sequences shown.

Biological target: Escherichia coli YfiP with a C-terminal hexahistidine tag (Escherichia coli) (UniProt Q47319)
Experiment: SEC; analytical gel filtration of purified YfiP-His6; conditions of the analytical run not told in the main text (Supplementary Figure S2); both purified

binding: no binding
B1: Escherichia coli YfiP with a C-terminal hexahistidine tag (enzyme, UniProt Q47319 1-232)
chain: MTENAVLQLRAERIARATRPFLARGNRVRRCQRCLLPEKLCLCSTITPAQAKSRFCLLMFDTEPMKPSNTGRLIADILPDTVAFQWSRTEPSQDLLELVQNPDYQPMVVFPASYADEQREVIFTPPAGKPPLFIMLDGTWPEARKMFRKSPYLDNLPVISVDLSRLSAYRLREAQAEGQYCTAEVAIALLDMAGDTGAAAGLGEHFTRFKTRYLAGKTQHLGSITAEQLESV
